The target in test [1] is T1, VeA-HA (A. nidulans VeA with HA tag) (A. nidulans) (UniProt C8VTV4).
T1 sequence: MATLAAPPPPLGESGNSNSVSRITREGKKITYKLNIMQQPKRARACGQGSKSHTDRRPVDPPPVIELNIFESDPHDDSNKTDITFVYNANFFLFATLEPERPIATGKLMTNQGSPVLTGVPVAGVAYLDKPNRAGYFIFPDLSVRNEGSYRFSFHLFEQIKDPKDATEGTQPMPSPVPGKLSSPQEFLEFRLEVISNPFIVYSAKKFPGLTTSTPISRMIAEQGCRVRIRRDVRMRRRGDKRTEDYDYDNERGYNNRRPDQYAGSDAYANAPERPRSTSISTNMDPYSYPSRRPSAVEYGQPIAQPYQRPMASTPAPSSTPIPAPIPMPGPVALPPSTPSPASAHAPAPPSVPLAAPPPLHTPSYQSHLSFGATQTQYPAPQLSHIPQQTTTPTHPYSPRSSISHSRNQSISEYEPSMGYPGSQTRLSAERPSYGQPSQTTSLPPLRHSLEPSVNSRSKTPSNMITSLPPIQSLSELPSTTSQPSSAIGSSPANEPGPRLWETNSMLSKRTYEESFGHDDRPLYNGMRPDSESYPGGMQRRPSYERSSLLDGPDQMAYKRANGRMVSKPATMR
Briefly: co-IP; GFP and HA (anti-HA agarose) pull-downs from vegetative mycelium of A. nidulans strains expressing veA:HA or vosA:HA and velB:gfp or velB^ΔIDD:gfp under native promoters, intact veA; Western with GFP and HA antibodies.

Chains of the proteins cited; added tags and fusions are not shown.
UniProt C8VTS4: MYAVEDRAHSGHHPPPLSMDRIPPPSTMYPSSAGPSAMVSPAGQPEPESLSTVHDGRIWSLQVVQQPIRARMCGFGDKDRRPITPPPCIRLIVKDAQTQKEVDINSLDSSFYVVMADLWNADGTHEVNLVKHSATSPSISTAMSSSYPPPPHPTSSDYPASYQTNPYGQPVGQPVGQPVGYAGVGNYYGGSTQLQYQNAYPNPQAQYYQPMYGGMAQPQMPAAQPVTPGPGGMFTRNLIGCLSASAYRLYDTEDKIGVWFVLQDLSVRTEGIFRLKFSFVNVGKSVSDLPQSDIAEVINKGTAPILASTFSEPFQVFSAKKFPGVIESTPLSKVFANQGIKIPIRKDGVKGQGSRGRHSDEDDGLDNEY

Test [2] has as its target T2, VosA-HA (A. nidulans VosA with HA tag) (A. nidulans) (UniProt Q5BBX1).
T2 sequence: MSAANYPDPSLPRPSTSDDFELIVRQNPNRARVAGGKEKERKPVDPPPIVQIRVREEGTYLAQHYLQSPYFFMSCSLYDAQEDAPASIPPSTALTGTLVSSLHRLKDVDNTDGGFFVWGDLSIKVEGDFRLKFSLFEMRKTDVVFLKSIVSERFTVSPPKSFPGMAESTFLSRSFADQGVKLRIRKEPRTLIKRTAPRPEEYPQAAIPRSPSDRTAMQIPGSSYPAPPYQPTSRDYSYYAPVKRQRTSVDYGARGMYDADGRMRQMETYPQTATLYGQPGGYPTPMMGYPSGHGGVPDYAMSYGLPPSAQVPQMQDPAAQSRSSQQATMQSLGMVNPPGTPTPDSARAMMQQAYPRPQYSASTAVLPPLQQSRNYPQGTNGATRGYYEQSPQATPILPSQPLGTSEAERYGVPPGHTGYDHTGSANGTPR
Described as above.

The target in test [3] is T3, VosA-GST (full-length A. nidulans VosA fused to GST) (A. nidulans) (UniProt Q5BBX1).
T3 sequence: T2 sequence
Kind of test: pull-down; GST pull-down (in vitro co-immunoprecipitation): VosA-GST from E. coli supernatant on GST beads, washed, then VelB-His or VelB^ΔIDD-His added for 2 h at 4°C; buffer W (100 mM Tris pH 8, 150 mM NaCl, 1 mM EDTA); Western with α-His and α-GST; only the target purified.

For test [4], the target named is VelB-GFP (A. nidulans Velvet-like B, full length, fused to GFP) (A. nidulans) (UniProt C8VTS4). Kind of test: co-IP; Co-IP with GFP and HA beads from 20-h vegetative mycelium of veA deletion strains expressing VosA-HA and VelB-GFP or VelB^ΔIDD-GFP; Western with anti-GFP and anti-HA.
For test [5] the target is unchanged. Kind of test: co-IP; GFP and HA (anti-HA agarose) pull-downs from vegetative mycelium of A. nidulans strains expressing veA:HA or vosA:HA and velB:gfp or velB^ΔIDD:gfp under native promoters, intact veA; Western with GFP and HA antibodies.

No constants are given. Whether binding was seen depends on the method and setting. Binding seen in cells or lysates may run through a third protein. Some entries that bind do so weakly or less than the wild type. Sequences can lack the tags named with a protein.

For “VelB-GFP (A. nidulans Velvet-like B, full length, fused to GFP) (from UniProt C8VTS4 1-369)”, the binding entry in test [1] and in test [2] was “binds” throughout.
As to “VelB-His (full-length A. nidulans VelB with His tag) (from UniProt C8VTS4 1-369)”, in test [3], the binding entry is recorded as “binds”.

B1: VosA-HA (A. nidulans VosA with HA tag) (natural protein, UniProt Q5BBX1 1-430, looked up)
chain: T2 sequence
notes: Viability of spores A (VosA), A. nidulans, AN1959; the vosA gene amplified with its 5' flanking region; Plasmid pME4693; strains AGB1136 (with velB:gfp) and AGB1137 (with velB^ΔIDD:gfp); source: A. nidulans, vosA:ha under its native promoter, in extract of vegetative mycelium
B1: the binding entry in test [4] and in test [5] was “binds” each time.

B2: VeA-HA (A. nidulans VeA with HA tag) (protein, UniProt C8VTV4 1-573)
chain: T1 sequence
On to B2, for which, in test [5], the binding entry is reported as “binds”.

The values above are taken from paper PMC12614781, “The VelB IDD promotes selective heterodimer formation of velvet proteins for fungal development” (Life Science Alliance, 2025).
